The target of the assay is T1, O-GlcNAc transferase (OGT) (human (endogenous in Hep3B and Huh7)) (UniProt O15294).
T1 sequence: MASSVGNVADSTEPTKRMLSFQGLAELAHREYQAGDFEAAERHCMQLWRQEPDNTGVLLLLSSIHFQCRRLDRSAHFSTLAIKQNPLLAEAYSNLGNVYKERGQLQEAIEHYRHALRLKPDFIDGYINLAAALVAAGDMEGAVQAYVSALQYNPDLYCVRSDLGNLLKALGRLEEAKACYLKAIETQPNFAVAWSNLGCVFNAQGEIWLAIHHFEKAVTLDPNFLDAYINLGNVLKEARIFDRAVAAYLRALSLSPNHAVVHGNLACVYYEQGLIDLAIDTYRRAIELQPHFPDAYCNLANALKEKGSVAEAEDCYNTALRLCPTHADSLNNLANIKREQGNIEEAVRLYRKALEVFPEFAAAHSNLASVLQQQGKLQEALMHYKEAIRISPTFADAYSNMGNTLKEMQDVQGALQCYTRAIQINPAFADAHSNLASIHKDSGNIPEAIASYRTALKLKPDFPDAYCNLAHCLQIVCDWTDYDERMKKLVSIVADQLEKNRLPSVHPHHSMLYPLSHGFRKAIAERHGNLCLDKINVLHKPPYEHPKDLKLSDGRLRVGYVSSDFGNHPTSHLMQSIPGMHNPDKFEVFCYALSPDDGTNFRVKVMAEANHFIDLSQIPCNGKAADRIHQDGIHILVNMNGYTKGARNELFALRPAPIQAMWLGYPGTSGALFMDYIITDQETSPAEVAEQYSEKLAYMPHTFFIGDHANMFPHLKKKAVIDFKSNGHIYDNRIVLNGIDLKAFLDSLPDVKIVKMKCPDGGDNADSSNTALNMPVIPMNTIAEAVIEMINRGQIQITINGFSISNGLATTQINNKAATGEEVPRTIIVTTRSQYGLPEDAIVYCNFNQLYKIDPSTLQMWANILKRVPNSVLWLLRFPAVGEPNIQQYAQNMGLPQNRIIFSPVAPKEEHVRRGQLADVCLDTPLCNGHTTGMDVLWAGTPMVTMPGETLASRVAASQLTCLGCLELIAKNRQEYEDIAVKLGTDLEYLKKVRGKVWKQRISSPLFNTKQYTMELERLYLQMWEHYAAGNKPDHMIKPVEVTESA
The assay can be described thus: affinity purification with mass spectrometry; IP-MS of proteins bound with OGT in Hep3B and BEL7402 cells; overlap of the two lists.

Chains of the proteins cited; added tags and fusions are not shown.
UniProt Q9UKM9: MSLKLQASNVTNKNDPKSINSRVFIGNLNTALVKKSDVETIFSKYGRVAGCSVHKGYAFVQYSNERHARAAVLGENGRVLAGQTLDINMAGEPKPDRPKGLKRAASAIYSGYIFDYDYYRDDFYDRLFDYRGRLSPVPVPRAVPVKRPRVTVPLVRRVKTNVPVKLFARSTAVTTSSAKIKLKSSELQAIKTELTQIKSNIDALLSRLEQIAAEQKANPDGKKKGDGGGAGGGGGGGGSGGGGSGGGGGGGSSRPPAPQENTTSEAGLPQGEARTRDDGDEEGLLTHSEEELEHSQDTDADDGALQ

Results are given in words; binding and its absence hold for the method and conditions named. Binding seen in cells or lysates may run through a third protein. A yes stands for co-enrichment or nearness to the bait. Other partners may have been found.

Take RALY (from UniProt Q9UKM9 1-306): the binding entry is “binds”.

Source of the values: PMC11234212.
